These are yes or no findings as the source states them, for the method shown. Binding seen in cells or lysates may run through a third protein.
Target: GPR27 fused with the C-terminal part of the firefly luciferase (human) (UniProt Q9NS67)
Assay: split reporter

Protein sequences, listed by entry. Tags and fused reporters are not part of them.
UniProt Q9NS67: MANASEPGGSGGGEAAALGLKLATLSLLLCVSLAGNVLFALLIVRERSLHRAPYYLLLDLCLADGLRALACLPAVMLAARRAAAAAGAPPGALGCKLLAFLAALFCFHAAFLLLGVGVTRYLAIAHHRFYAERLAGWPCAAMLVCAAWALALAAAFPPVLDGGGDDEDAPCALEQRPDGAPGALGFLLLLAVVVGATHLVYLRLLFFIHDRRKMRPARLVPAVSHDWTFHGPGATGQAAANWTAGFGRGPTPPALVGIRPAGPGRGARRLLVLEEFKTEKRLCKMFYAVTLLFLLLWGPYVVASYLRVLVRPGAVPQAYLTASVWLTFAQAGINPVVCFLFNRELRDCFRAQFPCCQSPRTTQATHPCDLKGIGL
UniProt P29067: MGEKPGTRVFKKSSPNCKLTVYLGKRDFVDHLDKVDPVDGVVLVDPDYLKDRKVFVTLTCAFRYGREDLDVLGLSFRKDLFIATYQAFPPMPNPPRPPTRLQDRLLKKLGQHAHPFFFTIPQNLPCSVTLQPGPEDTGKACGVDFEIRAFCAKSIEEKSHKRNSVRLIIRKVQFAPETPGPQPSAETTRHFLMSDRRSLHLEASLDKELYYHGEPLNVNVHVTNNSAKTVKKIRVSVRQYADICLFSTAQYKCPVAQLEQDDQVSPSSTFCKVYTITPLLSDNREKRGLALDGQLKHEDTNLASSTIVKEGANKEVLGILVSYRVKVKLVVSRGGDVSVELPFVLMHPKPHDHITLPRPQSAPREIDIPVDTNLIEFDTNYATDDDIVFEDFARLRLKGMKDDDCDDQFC

binding: no binding
Substance: β-arrestin 2 fused with the N-terminal part of the firefly luciferase (from UniProt P29067 1-410)

Source: doi:10.1101/2025.03.12.642381
